PubChem BioAssay AID1159578, Peter MacCallum Cancer Centre | 2015

Test: 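Genome-wide hunt for genes controlling movement of lymphatic endothelial cells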 (primary screen)
Cells: human lymphatic endothelial cells
Knock-down reagent: siRNA pool against human genes, 40 nM
Duration: 48 h after transfection
Measurement: 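Cells stained with dye and imaged after a scratch; covered wound area and nuclei counted, duplicates averaged, migration set against mock wells and turned into a robust z-score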
Scale: migration robust z-score: higher = faster migration into the scratch; nuclei per well: higher = more cells in the well
Hit rule: 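Migration changed when robust z exceeds 2 or falls below -2 and mean nuclei number is at least 3300; otherwise not called changed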
Meaning of the calls: active = migration changed; inactive = no migration change, or too few cells
In all, the deposit lists about 18,000 reagents; below is an unselected part. Over the whole deposit, about 1,030 (5.7%) are marked active. 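Inactive calls also include pools with fewer than 3300 nuclei, whose migration was not assessed.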 Raw values vary from plate to plate and are shown uncorrected. A number with no mark means an inactive call. Not all columns of the deposit are shown.

What is on record for MAN1A1?
migration robust z-score: 1.01; nuclei per well, duplicate mean: 6402

How did the screen score CACNB3?
migration robust z-score: -0.42; nuclei per well, duplicate mean: 5145

With RASL11B, what does the deposit list?
migration robust z-score: 0.11; nuclei per well, duplicate mean: 7245

Which result is listed for L3MBTL1?
migration robust z-score: -0.2; nuclei per well, duplicate mean: 5686

How did the screen score JUND?
migration robust z-score: 0.65; nuclei per well, duplicate mean: 6296

How did the screen score APOA1?
migration robust z-score: -0.57; nuclei per well, duplicate mean: 5781

With NAT1, what does the deposit list?
migration robust z-score: 1.5; nuclei per well, duplicate mean: 6128

What is on record for LRRC74A?
migration robust z-score: 0.22; nuclei per well, duplicate mean: 6330

With TRIM5, what was measured?
migration robust z-score: 0.49; nuclei per well, duplicate mean: 6362

What did the screen give for OGFRL1?
migration robust z-score: 0.54; nuclei per well, duplicate mean: 5376

For DENND4A, what does the deposit list?
migration robust z-score: 0.82; nuclei per well, duplicate mean: 6976

With GLP1R, how do the results read?
migration robust z-score: 0.08; nuclei per well, duplicate mean: 4996

Which result is listed for OR10J5?
migration robust z-score: -0.05; nuclei per well, duplicate mean: 5989

What did the screen give for OR6C74?
migration robust z-score: 1.14; nuclei per well, duplicate mean: 5612

What did the screen give for PPEF2?
migration robust z-score: -1.9; nuclei per well, duplicate mean: 6127

For CMTR2, what was measured?
migration robust z-score: 1.02; nuclei per well, duplicate mean: 6340

With ORMDL3, what was measured?
migration robust z-score: -0.06; nuclei per well, duplicate mean: 4719

Which result is listed for MINDY3?
migration robust z-score: 0.38; nuclei per well, duplicate mean: 7092

How did the screen score TMEM41A?
migration robust z-score: -0.21; nuclei per well, duplicate mean: 6870

For SHROOM1, how do the results read?
migration robust z-score: 0.96; nuclei per well, duplicate mean: 4606

For PPP1R3A, how do the results read?
migration robust z-score: -0.18; nuclei per well, duplicate mean: 6264

What is on record for PEDS1-UBE2V1?
migration robust z-score: 1.4; nuclei per well, duplicate mean: 5220

Which result is listed for BMS1?
migration robust z-score: 0.5; nuclei per well, duplicate mean: 3342

With SSB, what does the deposit list?
migration robust z-score: -0.56; nuclei per well, duplicate mean: 5542

What is on record for RLF?
migration robust z-score: -0.6; nuclei per well, duplicate mean: 5849

Which result is listed for SELPLG?
migration robust z-score: -2.7 (active); nuclei per well, duplicate mean: 4818

With KLHL38, what was measured?
migration robust z-score: -0.34; nuclei per well, duplicate mean: 3960

Already shown: an excerpt of the list.
ORMDL3: migration robust z-score = -0.06; nuclei per well, duplicate mean = 4719
MINDY3: migration robust z-score = 0.38; nuclei per well, duplicate mean = 7092
TMEM41A: migration robust z-score = -0.21; nuclei per well, duplicate mean = 6870
SHROOM1: migration robust z-score = 0.96; nuclei per well, duplicate mean = 4606
